Measurements from the supplement of paper PMC10849652.
The other results are listed elsewhere or left out.

Chains of the proteins cited; added tags and fusions are not shown. Lines headed by an entry give the natural chain unless they say otherwise; changes in a name come on top.
UniProt Q8NHG8: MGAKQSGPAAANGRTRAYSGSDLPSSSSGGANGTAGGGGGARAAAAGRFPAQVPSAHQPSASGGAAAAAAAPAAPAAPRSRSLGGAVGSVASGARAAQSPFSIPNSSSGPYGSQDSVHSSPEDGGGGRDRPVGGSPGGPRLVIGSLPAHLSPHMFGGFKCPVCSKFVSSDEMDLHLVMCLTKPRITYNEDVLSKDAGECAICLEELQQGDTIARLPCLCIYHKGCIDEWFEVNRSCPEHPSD
UniProt Q9UEG4: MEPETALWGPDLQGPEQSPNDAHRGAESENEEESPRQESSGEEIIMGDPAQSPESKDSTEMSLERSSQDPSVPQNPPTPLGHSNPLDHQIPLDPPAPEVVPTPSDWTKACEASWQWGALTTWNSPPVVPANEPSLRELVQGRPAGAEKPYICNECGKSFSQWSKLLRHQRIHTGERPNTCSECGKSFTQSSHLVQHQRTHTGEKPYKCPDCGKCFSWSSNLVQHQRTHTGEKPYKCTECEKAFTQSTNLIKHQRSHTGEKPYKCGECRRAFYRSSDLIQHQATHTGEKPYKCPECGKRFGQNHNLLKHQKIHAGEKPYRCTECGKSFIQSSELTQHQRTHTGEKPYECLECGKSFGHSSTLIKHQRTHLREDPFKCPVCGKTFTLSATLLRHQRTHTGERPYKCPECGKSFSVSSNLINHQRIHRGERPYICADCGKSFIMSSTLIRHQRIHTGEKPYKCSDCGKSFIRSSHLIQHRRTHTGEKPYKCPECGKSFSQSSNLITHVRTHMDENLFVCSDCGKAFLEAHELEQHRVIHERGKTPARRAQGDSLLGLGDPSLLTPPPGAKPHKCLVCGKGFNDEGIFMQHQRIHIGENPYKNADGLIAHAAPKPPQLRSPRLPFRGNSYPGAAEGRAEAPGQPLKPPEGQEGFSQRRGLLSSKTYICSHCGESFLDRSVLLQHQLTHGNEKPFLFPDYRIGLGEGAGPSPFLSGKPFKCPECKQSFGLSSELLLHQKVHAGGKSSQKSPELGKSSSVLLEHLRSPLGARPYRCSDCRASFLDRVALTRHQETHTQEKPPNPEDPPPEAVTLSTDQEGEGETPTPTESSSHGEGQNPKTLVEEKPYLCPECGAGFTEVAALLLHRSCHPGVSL
UniProt Q8IYH5: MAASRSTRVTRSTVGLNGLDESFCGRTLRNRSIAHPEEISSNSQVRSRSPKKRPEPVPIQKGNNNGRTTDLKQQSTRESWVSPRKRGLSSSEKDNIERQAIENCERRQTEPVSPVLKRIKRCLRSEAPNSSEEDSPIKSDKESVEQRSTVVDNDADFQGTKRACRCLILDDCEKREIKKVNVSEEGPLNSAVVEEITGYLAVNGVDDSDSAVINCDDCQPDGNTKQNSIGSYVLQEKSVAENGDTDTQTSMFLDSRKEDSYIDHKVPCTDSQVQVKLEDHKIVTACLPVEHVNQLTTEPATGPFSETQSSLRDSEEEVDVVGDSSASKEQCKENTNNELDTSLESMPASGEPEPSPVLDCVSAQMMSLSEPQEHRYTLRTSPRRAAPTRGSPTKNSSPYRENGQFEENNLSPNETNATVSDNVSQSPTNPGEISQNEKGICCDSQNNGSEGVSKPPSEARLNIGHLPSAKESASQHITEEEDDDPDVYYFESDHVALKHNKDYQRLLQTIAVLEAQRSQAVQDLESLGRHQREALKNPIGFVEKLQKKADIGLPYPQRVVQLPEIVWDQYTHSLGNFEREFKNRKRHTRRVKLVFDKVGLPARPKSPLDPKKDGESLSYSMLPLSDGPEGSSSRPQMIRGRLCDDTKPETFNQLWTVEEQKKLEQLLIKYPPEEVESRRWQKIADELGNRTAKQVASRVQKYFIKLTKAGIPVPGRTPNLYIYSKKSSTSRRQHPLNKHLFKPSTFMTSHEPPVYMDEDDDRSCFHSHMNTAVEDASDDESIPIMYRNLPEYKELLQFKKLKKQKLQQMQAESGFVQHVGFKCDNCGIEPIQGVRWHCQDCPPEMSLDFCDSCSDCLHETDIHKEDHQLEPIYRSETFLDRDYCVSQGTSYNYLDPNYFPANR
UniProt Q96NC0: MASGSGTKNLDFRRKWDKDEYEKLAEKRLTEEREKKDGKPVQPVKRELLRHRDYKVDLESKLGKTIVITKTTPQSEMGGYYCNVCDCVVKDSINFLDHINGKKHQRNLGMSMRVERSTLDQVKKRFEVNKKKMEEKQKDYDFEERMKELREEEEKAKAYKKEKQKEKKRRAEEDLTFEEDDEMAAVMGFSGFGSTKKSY
UniProt Q16600: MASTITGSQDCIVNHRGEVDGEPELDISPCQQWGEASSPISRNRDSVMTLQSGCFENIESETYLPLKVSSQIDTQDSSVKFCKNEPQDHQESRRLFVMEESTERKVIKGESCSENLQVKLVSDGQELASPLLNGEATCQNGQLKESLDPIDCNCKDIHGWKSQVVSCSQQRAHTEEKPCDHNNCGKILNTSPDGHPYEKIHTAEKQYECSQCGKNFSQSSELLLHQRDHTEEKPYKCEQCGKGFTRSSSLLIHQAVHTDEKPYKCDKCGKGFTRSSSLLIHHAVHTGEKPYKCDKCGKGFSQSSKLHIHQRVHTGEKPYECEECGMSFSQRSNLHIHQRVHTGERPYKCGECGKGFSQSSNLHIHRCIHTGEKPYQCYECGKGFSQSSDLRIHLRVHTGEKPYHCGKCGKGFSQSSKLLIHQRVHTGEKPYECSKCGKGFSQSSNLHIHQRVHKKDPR
UniProt Q9Y5V0: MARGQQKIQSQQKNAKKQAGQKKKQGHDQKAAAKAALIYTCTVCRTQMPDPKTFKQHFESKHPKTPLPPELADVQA
UniProt Q8NF64: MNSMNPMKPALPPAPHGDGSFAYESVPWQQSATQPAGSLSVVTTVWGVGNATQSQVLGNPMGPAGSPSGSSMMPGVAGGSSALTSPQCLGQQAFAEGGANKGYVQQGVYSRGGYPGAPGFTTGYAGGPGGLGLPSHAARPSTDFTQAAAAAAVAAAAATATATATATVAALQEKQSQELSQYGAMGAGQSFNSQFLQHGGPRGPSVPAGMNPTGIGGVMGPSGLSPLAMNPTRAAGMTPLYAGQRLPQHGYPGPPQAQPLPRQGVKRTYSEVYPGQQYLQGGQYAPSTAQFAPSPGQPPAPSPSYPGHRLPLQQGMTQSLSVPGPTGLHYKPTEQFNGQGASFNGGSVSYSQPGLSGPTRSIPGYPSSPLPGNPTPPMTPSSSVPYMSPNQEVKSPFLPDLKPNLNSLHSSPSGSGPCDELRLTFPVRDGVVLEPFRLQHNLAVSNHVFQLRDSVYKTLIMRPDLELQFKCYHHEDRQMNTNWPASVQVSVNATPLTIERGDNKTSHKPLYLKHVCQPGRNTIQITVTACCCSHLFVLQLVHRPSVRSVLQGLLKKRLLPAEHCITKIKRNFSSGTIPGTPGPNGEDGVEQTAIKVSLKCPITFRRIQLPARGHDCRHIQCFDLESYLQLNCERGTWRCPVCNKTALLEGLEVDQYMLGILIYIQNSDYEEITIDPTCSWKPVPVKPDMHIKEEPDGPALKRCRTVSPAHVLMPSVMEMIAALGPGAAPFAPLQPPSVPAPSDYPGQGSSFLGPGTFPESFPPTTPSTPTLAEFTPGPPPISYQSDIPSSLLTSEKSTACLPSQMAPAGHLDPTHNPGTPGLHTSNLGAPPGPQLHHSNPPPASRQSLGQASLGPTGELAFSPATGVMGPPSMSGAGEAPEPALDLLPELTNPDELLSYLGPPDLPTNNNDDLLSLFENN
UniProt Q03936: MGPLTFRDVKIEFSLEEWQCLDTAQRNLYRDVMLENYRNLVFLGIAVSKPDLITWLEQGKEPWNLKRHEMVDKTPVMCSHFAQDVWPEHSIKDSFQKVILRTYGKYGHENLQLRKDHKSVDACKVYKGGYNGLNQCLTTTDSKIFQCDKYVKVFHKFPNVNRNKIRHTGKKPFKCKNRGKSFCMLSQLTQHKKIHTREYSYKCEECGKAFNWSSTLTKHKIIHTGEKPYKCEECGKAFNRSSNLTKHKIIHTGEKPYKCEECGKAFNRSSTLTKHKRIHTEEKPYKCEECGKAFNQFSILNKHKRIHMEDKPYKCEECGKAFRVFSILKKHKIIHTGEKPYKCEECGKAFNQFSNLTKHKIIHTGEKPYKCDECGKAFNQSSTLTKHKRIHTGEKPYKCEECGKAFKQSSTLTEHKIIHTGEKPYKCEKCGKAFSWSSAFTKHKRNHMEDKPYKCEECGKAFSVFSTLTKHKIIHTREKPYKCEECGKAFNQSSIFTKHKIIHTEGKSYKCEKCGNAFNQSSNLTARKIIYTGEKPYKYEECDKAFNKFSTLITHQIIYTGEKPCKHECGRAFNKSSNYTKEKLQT
UniProt P35789: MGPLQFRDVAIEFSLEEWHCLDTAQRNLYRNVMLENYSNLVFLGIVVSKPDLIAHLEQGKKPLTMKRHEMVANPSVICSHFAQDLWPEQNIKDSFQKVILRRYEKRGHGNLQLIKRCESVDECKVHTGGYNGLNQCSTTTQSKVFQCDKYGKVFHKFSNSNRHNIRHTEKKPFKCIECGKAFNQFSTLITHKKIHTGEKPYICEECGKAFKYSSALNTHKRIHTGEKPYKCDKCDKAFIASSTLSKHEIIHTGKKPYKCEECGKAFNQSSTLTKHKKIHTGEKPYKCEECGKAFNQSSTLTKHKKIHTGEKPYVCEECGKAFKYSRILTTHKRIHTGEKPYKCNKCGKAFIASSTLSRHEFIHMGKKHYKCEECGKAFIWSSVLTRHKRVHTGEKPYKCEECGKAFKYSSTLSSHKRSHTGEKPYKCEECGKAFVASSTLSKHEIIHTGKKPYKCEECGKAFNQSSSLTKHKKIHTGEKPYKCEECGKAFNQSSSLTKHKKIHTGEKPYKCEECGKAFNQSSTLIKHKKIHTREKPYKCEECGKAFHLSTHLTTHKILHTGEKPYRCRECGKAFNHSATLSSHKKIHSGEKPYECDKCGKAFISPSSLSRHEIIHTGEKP
UniProt O75312: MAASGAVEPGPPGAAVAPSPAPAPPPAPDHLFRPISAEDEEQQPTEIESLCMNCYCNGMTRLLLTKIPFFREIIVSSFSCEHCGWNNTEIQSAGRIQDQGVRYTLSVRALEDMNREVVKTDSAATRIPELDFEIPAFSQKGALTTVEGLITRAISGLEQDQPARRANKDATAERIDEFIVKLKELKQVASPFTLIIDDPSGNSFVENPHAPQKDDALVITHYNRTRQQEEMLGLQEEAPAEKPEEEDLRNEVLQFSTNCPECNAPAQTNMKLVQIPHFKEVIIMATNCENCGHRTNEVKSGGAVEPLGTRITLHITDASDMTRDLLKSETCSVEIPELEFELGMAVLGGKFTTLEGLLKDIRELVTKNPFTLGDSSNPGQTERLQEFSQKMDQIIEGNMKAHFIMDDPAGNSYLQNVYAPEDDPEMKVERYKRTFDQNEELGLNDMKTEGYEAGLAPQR
UniProt O43670: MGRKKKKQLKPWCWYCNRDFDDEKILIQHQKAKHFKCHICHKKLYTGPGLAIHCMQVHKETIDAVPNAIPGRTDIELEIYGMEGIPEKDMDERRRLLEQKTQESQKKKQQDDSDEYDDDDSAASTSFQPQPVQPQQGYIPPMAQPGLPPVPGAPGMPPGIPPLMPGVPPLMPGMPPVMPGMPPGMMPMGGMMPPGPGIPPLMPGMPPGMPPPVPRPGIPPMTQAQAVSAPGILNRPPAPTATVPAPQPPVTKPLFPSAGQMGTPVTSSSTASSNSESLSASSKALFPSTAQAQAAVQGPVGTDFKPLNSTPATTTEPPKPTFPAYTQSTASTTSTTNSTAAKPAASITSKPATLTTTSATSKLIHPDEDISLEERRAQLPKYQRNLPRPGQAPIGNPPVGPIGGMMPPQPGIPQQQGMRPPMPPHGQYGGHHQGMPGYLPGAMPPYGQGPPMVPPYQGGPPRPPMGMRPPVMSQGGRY
UniProt O43264: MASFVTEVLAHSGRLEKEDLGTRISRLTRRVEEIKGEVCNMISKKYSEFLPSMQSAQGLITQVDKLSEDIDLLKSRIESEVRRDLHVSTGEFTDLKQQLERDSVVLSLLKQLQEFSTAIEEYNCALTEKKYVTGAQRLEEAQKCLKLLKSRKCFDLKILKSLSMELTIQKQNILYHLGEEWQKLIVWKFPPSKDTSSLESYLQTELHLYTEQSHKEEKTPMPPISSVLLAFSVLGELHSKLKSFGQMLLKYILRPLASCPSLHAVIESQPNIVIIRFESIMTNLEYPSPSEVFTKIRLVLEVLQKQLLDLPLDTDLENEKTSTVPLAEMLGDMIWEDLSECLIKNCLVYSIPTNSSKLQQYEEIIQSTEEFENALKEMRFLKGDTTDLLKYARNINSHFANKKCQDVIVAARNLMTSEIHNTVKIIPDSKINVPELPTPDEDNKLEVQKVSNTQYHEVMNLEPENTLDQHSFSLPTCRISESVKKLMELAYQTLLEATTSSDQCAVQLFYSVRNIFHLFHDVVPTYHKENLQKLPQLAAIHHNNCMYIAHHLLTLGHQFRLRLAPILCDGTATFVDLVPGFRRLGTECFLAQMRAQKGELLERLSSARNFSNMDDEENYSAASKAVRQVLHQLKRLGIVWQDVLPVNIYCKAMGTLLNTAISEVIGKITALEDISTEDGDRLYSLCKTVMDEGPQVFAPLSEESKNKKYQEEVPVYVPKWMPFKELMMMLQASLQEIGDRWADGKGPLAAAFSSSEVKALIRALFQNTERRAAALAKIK

Tests used:
Assay in all cases: log2 fold change, soluble protein after heating vs DMSO (PISA); higher = thermal stabilisation; K562 lysate, 10 uM; active = over 0.2 and 3.5 SD of the protein, either way, in both replicates (recomputed)
[1] = compound: CCCS(=O)(=O)Nc1ccc(F)c(C(=O)c2c[nH]c3ncc(-c4ccc(Cl)cc4)cc23)c1F [vemurafenib]
How it was run: (§1)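 K562 pellets were dounce-homogenised in PBS pH 7.4 with 1 mM MgCl2, and the crude extract at 1 mg/mL protein was treated with 10 μM compound for 30 min. Aliquots were heated for 3 min across 48°C-58°C, pooled, and brought to 0.5% NP-40 at 4°C; soluble protein was the supernatant after 21,000xg for 90 min. Soluble protein was quantified by TMTpro 16plex LC-MS/MS with channel sums equalised, and reported as log2 fold change in thermal stability against DMSO controls, with values from duplicates.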

[2] = compound: CCCS(=O)(=O)Nc1ccc(F)c(C(=O)c2c[nH]c3ncc(Cl)cc23)c1F
How it was run: as §1

[3] = compound: CCN(CCCOc1ccc2c(Nc3cc(CC(=O)Nc4cccc(F)c4)[nH]n3)ncnc2c1)CCOP(=O)(O)O [barasertib]
How it was run: as §1

[4] = compound: CC[C@@H]1C(=O)N(C)c2cnc(Nc3ccc(C(=O)NC4CCN(C)CC4)cc3OC)nc2N1C1CCCC1
How it was run: as §1

[5] = compound: CC[C@@H]1C(=O)N(C)c2cnc(Nc3ccc(C(=O)N[C@H]4CC[C@H](N5CCN(CC6CC6)CC5)CC4)cc3OC)nc2N1C(C)C [volasertib]
How it was run: as §1

[6] = compound: CCn1c(C(=O)N(C2CC2)C2CC2)cc2c3c(ncn3C)c(Nc3cc(C)n(C)n3)nc21
How it was run: as §1

[7] = compound: CCn1cc(-c2ccnc3[nH]c(-c4cccc(CN(C)C)c4)cc23)c(-c2ccc(NC(=O)N(C)C)cc2)n1
How it was run: as §1

[8] = compound: CN1CCC(CNc2ccc3ncc(-c4cccc(OC(F)(F)F)c4)n3n2)CC1
How it was run: as §1

[9] = compound: CN1CCN(c2nc(C3=C(c4c[nH]c5ccccc45)C(=O)NC3=O)c3ccccc3n2)CC1 [sotrastaurin]
How it was run: as §1

[10] = compound: CN1CC[C@H](c2c(O)cc(O)c3c(=O)cc(-c4ccccc4Cl)oc23)[C@H](O)C1 [alvocidib]
How it was run: as §1

[11] = compound: CN1CCc2c(c3ccccc3n2Cc2ccc(C(=O)NO)cc2)C1 [Tubastatin A]
How it was run: as §1

[12] = compound: CNC(=O)c1ccc(Nc2ncc(C(F)(F)F)c(NCc3nccnc3N(C)S(C)(=O)=O)n2)cc1 [defactinib]
How it was run: as §1

[13] = compound: COC(=O)N[C@@H](C)CNc1nccc(-c2cn(C(C)C)nc2-c2cc(Cl)cc(NS(C)(=O)=O)c2F)n1 [encorafenib]
How it was run: as §1

[14] = compound: COC(=O)[C@H](CCSC)NC(=O)C1=C(C=C(C=C1)NC[C@H](CS)N)C2=CC=CC=C2
How it was run: as §1

[15] = compound: COc1cc(Nc2ncc3c(n2)-c2ccc(Cl)cc2C(c2c(F)cccc2OC)=NC3)ccc1C(=O)O [alisertib]
How it was run: as §1

[16] = compound: COc1cc2nc(-c3cc(F)ccc3O)nc(N[C@@H]3CNC[C@H]3C(C)(C)O)c2cc1OC
How it was run: as §1

[17] = compound: COc1cc2ncnc(Nc3ccc(F)c(Cl)c3)c2cc1OCCCN1CCOCC1 [gefitinib]
How it was run: as §1

[18] = compound: CN1CCN(CCOc2cc(OC3CCOCC3)c3c(Nc4c(Cl)ccc5c4OCO5)ncnc3c2)CC1 [saracatinib]
How it was run: as §1

[19] = compound: CNC(=O)C1=CC=CC=C1NC2=NC(=NC=C2Cl)NC3=C(C=C(C=C3)N4CCOCC4)OC
How it was run: as §1

[20] = compound: CNc1nc(-c2ccc3c(N)n[nH]c3c2)cc(N2C[C@@H](C(=O)NC3CCCCC3)CC[C@H]2C)n1
How it was run: as §1

Measured: log2 fold change

ZNRF2 (UniProt Q8NHG8)
inactive: [1] -0.132 | [2] 0.019 | [3] 0 | [4] 0.059 | [5] -0.012 | [6] -0.012 | [7] 0.224 | [8] -0.097 | [9] -0.142 | [10] 0.032 | [11] 0.11 | [12] 0.121 | [13] 0.052 | [14] -0.039 | [15] -0.007 | [16] 0.002 | [17] -0.119

ZNF629 (UniProt Q9UEG4)
inactive: [1] 0.104 | [2] 0.016 | [3] 0.128 | [4] 0.144 | [5] -0.014 | [6] -0.001 | [7] -0.013 | [8] -0.072 | [18] -0.033 | [9] 0.042 | [10] -0.011 | [11] -0.028 | [19] 0.043 | [12] 0.064 | [20] 0.045 | [13] -0.014 | [14] -0.086 | [15] -0.084 | [16] -0.013 | [17] -0.064

ZSWIM8 isoform 4 (UniProt A7E2V4)
inactive: [1] -0.173 | [3] 0.22 | [4] 0.039 | [6] 0.038 | [7] -0.094 | [8] -0.071 | [18] 0.018 | [9] 0.039 | [10] 0.078 | [11] 0.149 | [19] -0.171 | [12] 0.088 | [20] -0.226 | [13] 0.035 | [14] -0.071 | [15] -0.034 | [17] -0.073

ZNF691 (UniProt Q5VV52)
inactive: [1] -0.019 | [2] 0.035 | [3] 0.005 | [4] 0 | [5] -0.042 | [6] -0.069 | [7] -0.092 | [8] 0 | [18] 0.057 | [9] -0.039 | [10] -0.025 | [11] 0.001 | [12] -0.009 | [20] -0.005 | [13] 0.024 | [14] -0.005 | [16] 0.008

ZZZ3 (UniProt Q8IYH5)
inactive: [1] 0.046 | [3] -0.073 | [4] 0.065 | [6] 0.011 | [7] 0.108 | [8] -0.1 | [18] 0.009 | [9] 0 | [10] 0.017 | [11] -0.112 | [19] -0.155 | [12] 0.03 | [20] 0.092 | [13] -0.024 | [14] -0.202 | [15] -0.015 | [17] -0.022

ZMAT2 (UniProt Q96NC0)
inactive: [1] -0.015 | [2] 0 | [3] -0.041 | [4] 0.062 | [5] 0.039 | [6] -0.026 | [7] -0.034 | [8] 0.087 | [18] 0.017 | [9] -0.036 | [10] -0.001 | [11] 0.053 | [19] -0.012 | [12] -0.001 | [20] -0.037 | [13] -0.035 | [14] -0.014 | [15] 0.009 | [16] 0.001 | [17] 0.013

ZNF239 (UniProt Q16600)
inactive: [1] -0.034 | [3] 0.015 | [4] 0.178 | [6] 0.018 | [7] 0.102 | [8] -0.124 | [9] 0.001 | [10] 0 | [11] 0.043 | [19] -0.034 | [12] 0.08 | [13] 0.058 | [14] -0.008 | [15] -0.039 | [17] -0.021

ZNF706 (UniProt Q9Y5V0)
inactive: [1] -0.002 | [2] -0.013 | [3] -0.03 | [4] 0.075 | [5] 0.034 | [6] 0.031 | [7] -0.026 | [8] 0.061 | [18] 0.06 | [9] -0.037 | [10] -0.02 | [11] 0.107 | [19] -0.009 | [12] -0.039 | [20] 0.07 | [13] -0.119 | [14] -0.064 | [15] -0.008 | [16] -0.005 | [17] -0.016

ZMIZ2 (UniProt Q8NF64)
inactive: [1] -0.01 | [2] -0.215 | [3] 0.024 | [4] 0.061 | [5] 0.142 | [7] -0.008 | [8] 0.004 | [18] 0.141 | [9] 0.041 | [10] 0.067 | [19] 0.044 | [12] -0.04 | [20] 0.046 | [13] 0.028 | [14] -0.011 | [15] 0.01 | [16] 0.116 | [17] 0.045

ZNF92 (UniProt Q03936)
inactive: [1] 0.064 | [2] -0.142 | [3] 0.168 | [5] -0.029 | [6] -0.075 | [7] 0 | [8] -0.135 | [18] -0.06 | [9] -0.049 | [10] 0.124 | [11] -0.061 | [19] -0.095 | [12] -0.092 | [20] -0.061 | [15] 0.018 | [16] -0.09 | [17] -0.045

ZNF644 (UniProt Q9H582)
inactive: [1] 0.027 | [3] 0.045 | [4] 0.047 | [6] -0.136 | [7] -0.05 | [8] -0.023 | [18] -0.086 | [9] 0.013 | [10] 0.003 | [11] -0.038 | [19] -0.058 | [12] 0.025 | [20] -0.02 | [13] 0.028 | [14] -0.011 | [15] -0.018 | [17] -0.024

ZKSCAN4 (UniProt Q969J2)
inactive: [1] 0.157 | [2] -0.228 | [5] -0.246 | [6] -0.007 | [9] -0.049 | [11] -0.127 | [19] 0.053 | [12] 0.022 | [16] -0.151

Quoted from the listing (two entries):
ZZZ3 (UniProt Q8IYH5)
inactive: [1] 0.046 | [3] -0.073 | [4] 0.065 | [6] 0.011 | [7] 0.108 | [8] -0.1 | [18] 0.009 | [9] 0 | [10] 0.017 | [11] -0.112 | [19] -0.155 | [12] 0.03 | [20] 0.092 | [13] -0.024 | [14] -0.202 | [15] -0.015 | [17] -0.022

ZMAT2 (UniProt Q96NC0)
inactive: [1] -0.015 | [2] 0 | [3] -0.041 | [4] 0.062 | [5] 0.039 | [6] -0.026 | [7] -0.034 | [8] 0.087 | [18] 0.017 | [9] -0.036 | [10] -0.001 | [11] 0.053 | [19] -0.012 | [12] -0.001 | [20] -0.037 | [13] -0.035 | [14] -0.014 | [15] 0.009 | [16] 0.001 | [17] 0.013

Continued:

ZNF93 (UniProt P35789)
inactive: [1] -0.024 | [2] -0.018 | [4] 0.001 | [5] -0.078 | [6] -0.02 | [18] 0.075 | [9] 0.085 | [11] -0.149 | [19] -0.024 | [12] -0.025 | [20] 0.089 | [13] -0.006 | [14] -0.034 | [15] -0.106 | [16] -0.053 | [17] 0.337

ZMYM4 (UniProt Q5VZL5)
inactive: [1] 0.008 | [2] 0.003 | [3] 0.126 | [4] 0.013 | [5] 0.041 | [6] 0.033 | [7] 0.013 | [8] 0.029 | [18] 0.023 | [9] 0.043 | [10] -0.071 | [11] -0.089 | [19] -0.015 | [12] 0.096 | [20] 0.188 | [13] 0.063 | [14] 0.016 | [15] -0.004 | [16] 0.004 | [17] 0.047

ZPR1 (UniProt O75312)
inactive: [1] -0.004 | [2] -0.008 | [3] 0.013 | [4] 0.012 | [5] 0.025 | [6] 0.007 | [7] -0.009 | [8] 0.041 | [18] -0.016 | [9] -0.012 | [10] -0.004 | [11] 0.036 | [19] -0.019 | [12] -0.023 | [20] -0.006 | [13] -0.023 | [14] -0.018 | [15] 0.009 | [16] 0.004 | [17] 0.013

ZNF207 isoform 2 (UniProt O43670)
inactive: [1] -0.04 | [2] 0.024 | [3] -0.112 | [4] 0.182 | [5] 0.073 | [6] -0.217 | [18] 0.08 | [9] 0.092 | [11] 0.015 | [19] 0.023 | [12] 0.024 | [20] 0.055 | [13] -0.002 | [14] -0.127 | [15] -0.01 | [16] 0.039 | [17] -0.1

ZNF787 (UniProt Q6DD87)
inactive: [1] 0.266 | [2] 0.084 | [3] -0.156 | [4] -0.063 | [5] -0.018 | [6] -0.04 | [7] -0.02 | [8] 0.044 | [18] 0.073 | [9] -0.107 | [10] -0.037 | [11] 0.086 | [19] -0.038 | [12] -0.058 | [20] 0.128 | [13] 0.076 | [14] -0.013 | [15] -0.038 | [16] 0.014 | [17] -0.119

ZW10 (UniProt O43264)
inactive: [1] 0.027 | [2] 0.017 | [3] 0.029 | [4] -0.019 | [5] -0.06 | [6] 0.031 | [7] -0.04 | [8] -0.078 | [18] 0.034 | [9] 0.021 | [10] -0.003 | [11] -0.032 | [19] 0.003 | [12] 0.035 | [20] -0.015 | [13] 0.047 | [14] 0.017 | [15] -0.001 | [16] 0.017 | [17] -0.019
